In the supplement of paper PMC7661543:
± gives the standard deviation of the averaged measurements. The effect of the compound repeats well; differences between the knockouts mostly do not.

System: ZR-75-1
Test: relative cell number vs DMSO control (72 h) (% of DMSO); higher = less growth inhibition (more cells)
Description: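 QMAP-Seq: a pool of 5 breast cancer cell lines (ZR-75-1, SKBR3, HCC-38, MDA-MB-231, BT-20), each carrying 12 doxycycline-inducible Cas9 sgRNA perturbations (11 knockouts plus non-targeting sgNT), was treated with compounds for 72 h at four 10-fold doses (10 nM-10 uM or 1 nM-1 uM range). Barcodes were amplified and sequenced, and cell number was interpolated from 293T spike-in standard curves. The result is expressed as % of the median of DMSO wells. Two biological replicates.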

[1] = sgRNA knockout: sgATF3, 1000 nM
[2] = sgRNA knockout: sgATF3, 10000 nM
[3] = sgRNA knockout: sgATF4, 1000 nM
[4] = sgRNA knockout: sgATF4, 10000 nM
[5] = sgRNA knockout: sgATF6, 1000 nM
[6] = sgRNA knockout: sgATF6, 10000 nM
[7] = sgRNA knockout: sgATG7, 1000 nM
[8] = sgRNA knockout: sgATG7, 10000 nM
[9] = sgRNA knockout: sgERN1, 1000 nM
[10] = sgRNA knockout: sgERN1, 10000 nM
[11] = sgRNA knockout: sgHSF2, 1000 nM
[12] = sgRNA knockout: sgHSF2, 10000 nM
[13] = sgRNA knockout: sgNFE2L2, 10 nM
[14] = sgRNA knockout: sgNFE2L2, 100 nM
[15] = sgRNA knockout: sgNFE2L2, 1000 nM
[16] = sgRNA knockout: sgNFE2L2, 10000 nM
[17] = sgRNA knockout: sgSLC35F2, 10 nM
[18] = sgRNA knockout: sgSLC35F2, 100 nM
[19] = sgRNA knockout: sgSLC35F2, 1000 nM
[20] = sgRNA knockout: sgSLC35F2, 10000 nM
[21] = sgRNA knockout: sgXBP1, 1000 nM
[22] = sgRNA knockout: sgXBP1, 10000 nM

SMILES	relative cell number (sgRNA knockout: sgATF3, 10 nM)	relative cell number (sgRNA knockout: sgATF3, 100 nM)	relative cell number [1]	relative cell number [2]	relative cell number (sgRNA knockout: sgATF4, 10 nM)	relative cell number (sgRNA knockout: sgATF4, 100 nM)	relative cell number [3]	relative cell number [4]	relative cell number (sgRNA knockout: sgATF6, 10 nM)	relative cell number (sgRNA knockout: sgATF6, 100 nM)	relative cell number [5]	relative cell number [6]	relative cell number (sgRNA knockout: sgATG7, 10 nM)	relative cell number (sgRNA knockout: sgATG7, 100 nM)	relative cell number [7]	relative cell number [8]	relative cell number (sgRNA knockout: sgERN1, 10 nM)	relative cell number (sgRNA knockout: sgERN1, 100 nM)	relative cell number [9]	relative cell number [10]	relative cell number (sgRNA knockout: sgHSF2, 10 nM)	relative cell number (sgRNA knockout: sgHSF2, 100 nM)	relative cell number [11]	relative cell number [12]	relative cell number [13]	relative cell number [14]	relative cell number [15]	relative cell number [16]	relative cell number [17]	relative cell number [18]	relative cell number [19]	relative cell number [20]	relative cell number (sgRNA knockout: sgXBP1, 10 nM)	relative cell number (sgRNA knockout: sgXBP1, 100 nM)	relative cell number [21]	relative cell number [22]
Cc1cnc(Nc2ccc(OCCN3CCCC3)cc2)nc1Nc1cccc(S(=O)(=O)NC(C)(C)C)c1	119 ± 8.5	84.5 ± 1.2	69.3 ± 39	18 ± 4	87.7 ± 33	111 ± 27	76.6 ± 16	23.7 ± 5.8	104 ± 57	92.1 ± 7.4	80 ± 26	10.9 ± 6.7	98.1 ± 6.7	96.2 ± 10	74.3 ± 42	17.7 ± 7.9	105 ± 31	108 ± 23	64.3 ± 13	15.2 ± 0.5	95.6 ± 4.7	107 ± 19	66.2 ± 11	16.9 ± 0.71	106 ± 41	86.3 ± 21	73.16 ± 0.61	11.7 ± 1.5	74 ± 35	67.3 ± 13	69.8 ± 25	23.6 ± 0.096	90.4 ± 22	106 ± 8.6	70.2 ± 6.6	19.15 ± 0.074
N#Cc1ccc(COC[C@H]2O[C@@H](n3c(NCc4ccc(Cl)c(Cl)c4)nc4c(N)ncnc43)[C@H](O)[C@@H]2O)cc1	122 ± 7.5	79.5 ± 14	104 ± 32	66.6 ± 3.8	137 ± 10	97.2 ± 3.4	106 ± 62	54 ± 13	126 ± 2.6	79.9 ± 5.6	76.2 ± 4.8	49.6 ± 15	87.5 ± 15	66.7 ± 11	93.7 ± 5.6	65.6 ± 26	114 ± 5.5	92.2 ± 9.6	100 ± 9.1	61.5 ± 2.7	102 ± 18	103 ± 6.8	94 ± 19	61.9 ± 21	115 ± 8.2	119 ± 14	97.7 ± 20	63.4 ± 8.5	104 ± 17	78.6 ± 5.9	108 ± 67	25.1 ± 7.4	103 ± 28	103 ± 2.9	93.5 ± 0.21	55.7 ± 14
O=C(NOCC(O)CO)c1cc(Br)c(F)c(F)c1Nc1ccc(I)cc1F (stereo unspecified)	91.2 ± 21	82.9 ± 26	91.5 ± 10	63.6 ± 9.8	141 ± 44	102 ± 31	65.3 ± 8.3	98.9 ± 22	142 ± 21	91.9 ± 12	97 ± 9.6	50.6 ± 22	121 ± 22	72.5 ± 3	71.5 ± 9.4	77.6 ± 3.6	113 ± 2.1	74 ± 11	86.4 ± 23	60.1 ± 19	89.1 ± 7.1	85.4 ± 20	76.5 ± 16	69.7 ± 21	112 ± 54	114 ± 25	81.4 ± 5.8	60.5 ± 11	115 ± 34	76.4 ± 27	119 ± 14	51.7 ± 13	110 ± 34	101 ± 20	73.8 ± 9.8	52.1 ± 1.8
O=c1[nH]cc(F)c(=O)[nH]1 [5-Fluorouracil]	138 ± 43	111 ± 19	58.4 ± 23	45.9 ± 12	80.7 ± 2.9	103 ± 30	55.9 ± 16	54.8 ± 3	55.8 ± 4.5	71 ± 1.2	59 ± 1.8	36.8 ± 9	101 ± 1.3	110 ± 57	66.4 ± 9.6	27.4 ± 4.1	83.8 ± 7.5	104 ± 29	79.4 ± 13	47 ± 0.24	107 ± 28	133 ± 56	70.3 ± 2.2	31.3 ± 6	99.8 ± 7.1	93.7 ± 6.2	75.5 ± 6.3	33.2 ± 17	77.4 ± 14	146 ± 7.3	43.2 ± 4.9	47.4 ± 16	103 ± 22	103 ± 30	75.4 ± 22	29.9 ± 2.6
Cc1sc2c(c1C)C(c1ccc(Cl)cc1)=N[C@@H](CC(=O)OC(C)(C)C)c1nnc(C)n1-2 [(+)-JQ1]	105 ± 34	132 ± 64	94.9 ± 11	95.4 ± 32	61.6 ± 3.7	151 ± 89	112 ± 11	50.7 ± 2.2	92.7 ± 6.3	89.6 ± 3.5	67.6 ± 22	47.5 ± 20	105 ± 22	95.8 ± 16	87.6 ± 16	70 ± 6.2	97 ± 2.5	139 ± 35	121 ± 23	67.6 ± 14	102 ± 0.45	131 ± 54	103 ± 5	80.4 ± 3.3	112 ± 5.2	96.5 ± 13	94.2 ± 20	84.2 ± 5.2	83.7 ± 53	131 ± 62	87.4 ± 40	77.4 ± 1.2	114 ± 18	104 ± 11	102 ± 1.8	76.8 ± 11
CN(C)CC[C@H](CSc1ccccc1)Nc1ccc(S(=O)(=O)NC(=O)c2ccc(N3CCN(Cc4ccccc4-c4ccc(Cl)cc4)CC3)cc2)cc1[N+](=O)[O-] [ABT737]	121 ± 40	112 ± 2.2	105 ± 2.3	104 ± 29	97.8 ± 6.1	99.6 ± 21	132 ± 17	66 ± 27	113 ± 45	101 ± 20	80.6 ± 57	105 ± 16	77.2 ± 5.8	105 ± 12	92.2 ± 20	92.6 ± 3.2	102 ± 4.2	80.2 ± 4.8	104 ± 13	92 ± 12	121 ± 4.5	103 ± 2.4	87 ± 19	105 ± 23	93.8 ± 5.5	109 ± 5.9	108 ± 1.3	134 ± 24	105 ± 64	112 ± 20	112 ± 10	75.7 ± 12	97.1 ± 3.2	95.6 ± 1.5	118 ± 26	119 ± 35
